# According to paper PMC5996148:
# “And” between values parts separate entries of the source, which are not always exact repeats. Equal values may be shown once. The list shows a part of the results.
# How the values were obtained:
# Test in all cases: protein microarray (ProtoArray v5.0), streptavidin-Alexa Fluor 647
# Conditions in all cases: 3'-biotin; 20 mM Tris (pH 7.5), 5 mM MgCl2, 100 mM KCl, 0.1% Tween-20, A/T-rich and random oligonucleotide blockers; temperature not stated; high values mean tight binding
# DCXR (human) = system: DCXR (human)
# DDAH2 (human) = system: DDAH2 (human)
# DDX39 (human) = system: DDX39 (human)
# DEFA6 (human) = system: DEFA6 (human)
# DEFB1 (human) = system: DEFB1 (human)
# DEFB119 (human) = system: DEFB119 (human)
# [1] = system: DENN domain-containing protein 1B (human)
# DERL1 (human) = system: DERL1 (human)
# DERL2 (human) = system: DERL2 (human)
# DFFA (human) = system: DFFA (human)
# DFNA5 (human) = system: DFNA5 (human)
# DGCR6 (human) = system: DGCR6 (human)
# DGUOK (human) = system: DGUOK (human)
# DHDDS (human) = system: DHDDS (human)
# DHX16 (human) = system: DHX16 (human)
# DHX30 (human) = system: DHX30 (human)
# DHX32 (human) = system: DHX32 (human)
# DIABLO (human) = system: DIABLO (human)
# DIP (human) = system: DIP (human)
# [2] = system: DIS3-like exonuclease 1 (human)
sequence,measurement,setting,value
GGGAGGCTGAGGCAGG [G4-1 biotinylated (PQS2)],binding signal,DCXR (human),-0.315 z-score
same,binding signal,DDAH2 (human),-0.307 z-score
same,binding signal,DDX39 (human),-0.265 z-score and -0.287 z-score
same,binding signal,DEFA6 (human),-0.35 z-score
same,binding signal,DEFB1 (human),-0.304 z-score
same,binding signal,DEFB119 (human),-0.323 z-score
same,binding signal,[1],-0.298 z-score
same,binding signal,DERL1 (human),-0.276 z-score
same,binding signal,DERL2 (human),-0.31 z-score
same,binding signal,DFFA (human),-0.36 z-score and -0.361 z-score
same,binding signal,DFNA5 (human),-0.364 z-score
same,binding signal,DGCR6 (human),-0.355 z-score
same,binding signal,DGUOK (human),-0.31 z-score
same,binding signal,DHDDS (human),-0.296 z-score
same,binding signal,DHX16 (human),-0.279 z-score
same,binding signal,DHX30 (human),-0.287 z-score
same,binding signal,DHX32 (human),-0.336 z-score
same,binding signal,DIABLO (human),-0.35 z-score
same,binding signal,DIP (human),-0.329 z-score
same,binding signal,[2],-0.312 z-score

# Five entries from above, tab-delimited:
sequence	measurement	setting	value
GGGAGGCTGAGGCAGG [G4-1 biotinylated (PQS2)]	binding signal	DDX39 (human)	-0.265 z-score and -0.287 z-score
same	binding signal	DEFA6 (human)	-0.35 z-score
same	binding signal	DERL1 (human)	-0.276 z-score
same	binding signal	DERL2 (human)	-0.31 z-score
same	binding signal	[2]	-0.312 z-score
